Experimental findings from paper PMC4772117 are described below.

Sequences of proteins named here, by UniProt entry; tags and fusion partners are left off. A change or cut given only in a name is not applied to a line headed by its entry.
UniProt O14734: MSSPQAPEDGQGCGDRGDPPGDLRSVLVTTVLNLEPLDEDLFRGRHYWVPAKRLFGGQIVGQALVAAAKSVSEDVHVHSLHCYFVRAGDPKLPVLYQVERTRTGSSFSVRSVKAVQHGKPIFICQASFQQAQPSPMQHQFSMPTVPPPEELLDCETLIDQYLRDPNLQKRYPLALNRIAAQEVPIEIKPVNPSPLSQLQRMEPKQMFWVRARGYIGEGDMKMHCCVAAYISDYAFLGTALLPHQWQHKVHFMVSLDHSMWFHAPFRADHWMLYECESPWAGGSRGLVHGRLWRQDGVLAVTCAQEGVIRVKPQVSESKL

This assay concerns the target HIV-1-LAI Nef (HIV-1 (strain LAI)) (UniProt P03406). In words: co-IP; CHO cells cotransfected with HA-tagged Nef and ACOT8 constructs, 48 h; non-denaturing lysis buffer (10 mM Tris-HCl pH 7.5, 5 mM EDTA, 150 mM NaCl, 1% Triton X-100); anti-HA antibody overnight at 4 °C, protein G Dynabeads; blot with anti-ACOT8 antibody.

These are yes or no findings as the source states them, for the method shown. Binding seen in cells or lysates may run through a third protein. Binding calls can cover weak binding; strength is not graded here.

For the substance “ACOT8 pΔPAK mutant (point deletion of Lys52) (from UniProt O14734) (enzyme)”, the binding result is recorded as “binds”.

As to “ACOT8 pΔPK mutant (Lys91 to Ser91) (from UniProt O14734) (enzyme)”, the binding entry was “no binding”.
